The other results are listed elsewhere or left out.
Experiments:
Assay in all cases: glycan array binding signal (z-score within array); higher = stronger binding
Details in all cases: glycan notation: IUPAC condensed, linker removed
[1] = target: Neu5Ac(a2-6)Gal(b1-4)GlcNAc(b1-2)Man(a1-3)[GlcNAc(b1-4)][Neu5Ac(a2-6)Gal(b1-4)GlcNAc(b1-2)Man(a1-6)]Man(b1-4)GlcNAc(b1-4)GlcNAc
Procedure, shortened: (§1)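 The binding signal is a Z-score computed within each array. Data were drawn from 3228 arrays in the Consortium for Functional Glycomics database, restricted to those with a known protein sequence. Scores were averaged over arrays of the same protein sequence at different concentrations or buffers, and over linkers, and negative values can be taken as non-binding.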

[2] = target: Neu5Ac(a2-6)Gal(b1-4)GlcNAc(b1-2)Man(a1-3)[Man(a1-6)]Man(b1-4)GlcNAc(b1-4)GlcNAc
Procedure, shortened: as §1

[3] = target: Neu5Ac(a2-6)Gal(b1-4)GlcNAc(b1-2)Man(a1-3)[Neu5Ac(a2-3)Gal(b1-4)GlcNAc(b1-2)Man(a1-6)]Man(b1-4)GlcNAc(b1-4)GlcNAc
Procedure, shortened: as §1

[4] = target: Neu5Ac(a2-6)Gal(b1-4)GlcNAc(b1-2)Man(a1-3)[Neu5Ac(a2-6)Gal(b1-4)GlcNAc(b1-2)Man(a1-6)]Man(b1-4)GlcNAc(b1-4)GlcNAc
Procedure, shortened: as §1

[5] = target: Neu5Ac(a2-6)Gal(b1-4)GlcNAc(b1-2)Man(a1-3)[Neu5Ac(a2-6)Gal(b1-4)GlcNAc(b1-2)Man(a1-6)]Man(b1-4)GlcNAc(b1-4)[Fuc(a1-6)]GlcNAc
Procedure, shortened: as §1

[6] = target: Neu5Ac(a2-6)Gal(b1-4)GlcNAc(b1-2)Man(a1-6)Man(b1-4)GlcNAc(b1-4)GlcNAc
Procedure, shortened: as §1

[7] = target: Neu5Ac(a2-6)Gal(b1-4)GlcNAc(b1-2)Man(a1-6)[Gal(b1-4)GlcNAc(b1-2)Man(a1-3)]Man(b1-4)GlcNAc(b1-4)GlcNAc
Procedure, shortened: as §1

[8] = target: Neu5Ac(a2-6)Gal(b1-4)GlcNAc(b1-2)Man(a1-6)[GlcNAc(b1-2)Man(a1-3)]Man(b1-4)GlcNAc(b1-4)GlcNAc
Procedure, shortened: as §1

[9] = target: Neu5Ac(a2-6)Gal(b1-4)GlcNAc(b1-2)Man(a1-6)[Man(a1-3)]Man(b1-4)GlcNAc(b1-4)GlcNAc
Procedure, shortened: as §1

[10] = target: Neu5Ac(a2-6)Gal(b1-4)GlcNAc(b1-2)[Neu5Ac(a2-6)Gal(b1-4)GlcNAc(b1-4)]Man(a1-3)[GlcNAc(b1-4)][Neu5Ac(a2-6)Gal(b1-4)GlcNAc(b1-2)[Neu5Ac(a2-6)Gal(b1-4)GlcNAc(b1-6)]Man(a1-6)]Man(b1-4)GlcNAc(b1-4)GlcNAc
Procedure, shortened: as §1

[11] = target: Neu5Ac(a2-6)Gal(b1-4)GlcNAc(b1-2)[Neu5Ac(a2-6)Gal(b1-4)GlcNAc(b1-4)]Man(a1-3)[GlcNAc(b1-4)][Neu5Ac(a2-6)Gal(b1-4)GlcNAc(b1-4)Man(a1-6)]Man(b1-4)GlcNAc(b1-4)GlcNAc
Procedure, shortened: as §1

[12] = target: Neu5Ac(a2-6)Gal(b1-4)GlcNAc(b1-2)[Neu5Ac(a2-6)Gal(b1-4)GlcNAc(b1-6)]Man(a1-6)[Neu5Ac(a2-6)Gal(b1-4)GlcNAc(b1-2)Man(a1-3)][GlcNAc(b1-4)]Man(b1-4)GlcNAc(b1-4)GlcNAc
Procedure, shortened: as §1

[13] = target: Neu5Ac(a2-6)Gal(b1-4)GlcNAc(b1-3)Gal(b1-3)GlcNAc
Procedure, shortened: as §1

[14] = target: Neu5Ac(a2-6)Gal(b1-4)GlcNAc(b1-3)Gal(b1-4)GlcNAc
Procedure, shortened: as §1

[15] = target: Neu5Ac(a2-6)Gal(b1-4)GlcNAc(b1-3)Gal(b1-4)GlcNAc(b1-2)Man(a1-3)[Neu5Ac(a2-6)Gal(b1-4)GlcNAc(b1-3)Gal(b1-4)GlcNAc(b1-2)Man(a1-6)]GalNAc
Procedure, shortened: as §1

[16] = target: Neu5Ac(a2-6)Gal(b1-4)GlcNAc(b1-3)Gal(b1-4)GlcNAc(b1-3)Gal(b1-4)GlcNAc
Procedure, shortened: as §1

[17] = target: Neu5Ac(a2-6)Gal(b1-4)GlcNAc(b1-3)Gal(b1-4)GlcNAc(b1-3)Gal(b1-4)GlcNAc(b1-2)Man(a1-3)[Neu5Ac(a2-6)Gal(b1-4)GlcNAc(b1-3)Gal(b1-4)GlcNAc(b1-3)Gal(b1-4)GlcNAc(b1-2)Man(a1-6)]GalNAc
Procedure, shortened: as §1

[18] = target: Neu5Ac(a2-6)Gal(b1-4)GlcNAc(b1-3)Gal(b1-4)GlcNAc(b1-3)GalNAc
Procedure, shortened: as §1

[19] = target: Neu5Ac(a2-6)Gal(b1-4)GlcNAc(b1-3)Gal(b1-4)GlcNAc(b1-3)[Neu5Ac(a2-6)Gal(b1-4)GlcNAc(b1-3)Gal(b1-4)GlcNAc(b1-6)]GalNAc
Procedure, shortened: as §1

[20] = target: Neu5Ac(a2-6)Gal(b1-4)GlcNAc(b1-3)Gal(b1-4)GlcNAc(b1-6)[Gal(b1-3)]GalNAc
Procedure, shortened: as §1

[21] = target: Neu5Ac(a2-6)Gal(b1-4)GlcNAc(b1-3)Gal(b1-4)[Fuc(a1-3)]GlcNAc(b1-3)Gal(b1-4)[Fuc(a1-3)]GlcNAc
Procedure, shortened: as §1

[22] = target: Neu5Ac(a2-6)Gal(b1-4)GlcNAc(b1-3)GalNAc
Procedure, shortened: as §1

[23] = target: Neu5Ac(a2-6)Gal(b1-4)GlcNAc(b1-3)[Neu5Ac(a2-6)Gal(b1-4)GlcNAc(b1-6)]GalNAc
Procedure, shortened: as §1

[24] = target: Neu5Ac(a2-6)Gal(b1-4)GlcNAc(b1-6)GalNAc
Procedure, shortened: as §1

[25] = target: Neu5Ac(a2-6)Gal(b1-4)GlcNAc(b1-6)[Gal(b1-3)GlcNAc(b1-3)]Gal(b1-4)Glc
Procedure, shortened: as §1

[26] = target: Neu5Ac(a2-6)Gal(b1-4)GlcNAc(b1-6)[Gal(b1-3)]GalNAc
Procedure, shortened: as §1

[27] = target: Neu5Ac(a2-6)Gal(b1-4)GlcNAc6S
Procedure, shortened: as §1

[28] = target: Neu5Ac(a2-6)GalNAc
Procedure, shortened: as §1

[29] = target: Neu5Ac(a2-6)GalNAc(b1-4)GlcNAc
Procedure, shortened: as §1

[30] = target: Neu5Ac(a2-6)GalNAc(b1-4)GlcNAc6S
Procedure, shortened: as §1

[31] = target: Neu5Ac(a2-6)GlcNAc(b1-4)GlcNAc
Procedure, shortened: as §1

B1: AT3G44510(29) (Arabidopsis thaliana), F4J341 (protein)
chain: MEEHLQGRIKLHDGRYLAYKERGVPKDDAKFTIVLVHGFGSSKDMNFNVSQELVNEIGIYFVLYDRAGYGESDPNPKRSLKSEAYDVQELADGLEIGSRFYLIGISMGSYTVWSCLKHIPQRLAGVAMVAPVVNFRWPSIPKSLMPKDYRREVAKWSVWIANYFPGLLQWLVTQNMFSTTSMLEKNPVYFNDQDIEVLKHIKGFPMLTKEKLRERGVFGTLRSDFLVAFGDWDFDPADLPDPSLSGPEKGSSSVHIWQGYEDKVMPFQLQRCLCRKLPWIRYHEVPKGGHLIVHYDGICDAILKSLLLGEDLPMYKPKAVITEPA
glycan array binding signal (z-score) [1]: -0.438 | glycan array binding signal (z-score) [2]: -0.667 | glycan array binding signal (z-score) [3]: 0.086 | glycan array binding signal (z-score) [4]: 0.398 | glycan array binding signal (z-score) [5]: -0.482 | glycan array binding signal (z-score) [6]: -0.257 | glycan array binding signal (z-score) [7]: 0.119 | glycan array binding signal (z-score) [8]: -0.553 | glycan array binding signal (z-score) [9]: 0.633 | glycan array binding signal (z-score) [10]: -0.785 | glycan array binding signal (z-score) [11]: -0.131 | glycan array binding signal (z-score) [12]: -0.036 | glycan array binding signal (z-score) [13]: -0.321 | glycan array binding signal (z-score) [14]: -0.06 | glycan array binding signal (z-score) [15]: -0.18 | glycan array binding signal (z-score) [16]: -0.818 | glycan array binding signal (z-score) [17]: 2.59 | glycan array binding signal (z-score) [18]: -0.097 | glycan array binding signal (z-score) [19]: -0.717 | glycan array binding signal (z-score) [20]: -0.695 | glycan array binding signal (z-score) [21]: -0.025 | glycan array binding signal (z-score) [22]: 0.206 | glycan array binding signal (z-score) [23]: -0.381 | glycan array binding signal (z-score) [24]: 0.464 | glycan array binding signal (z-score) [25]: -0.332 | glycan array binding signal (z-score) [26]: -0.396 | glycan array binding signal (z-score) [27]: -0.464 | glycan array binding signal (z-score) [28]: -0.271 | glycan array binding signal (z-score) [29]: 0.107 | glycan array binding signal (z-score) [30]: -0.42 | glycan array binding signal (z-score) [31]: -0.656

From the supplement of paper PMC8728848
